Reference: US20120082680A1 (Merck Sharp & Dohme, published 2012)
Residue numbers refer to the chain shown, from its start. Results are given in words; binding and its absence hold for the method and conditions named. Some binding calls cover weakened binding; strength is not graded here. One block for each binder: values may come before it.

Amino acid sequences for entries named in this document (tags omitted). Residues count along the entry.
UniProt Q8NBP7, residues 31-692: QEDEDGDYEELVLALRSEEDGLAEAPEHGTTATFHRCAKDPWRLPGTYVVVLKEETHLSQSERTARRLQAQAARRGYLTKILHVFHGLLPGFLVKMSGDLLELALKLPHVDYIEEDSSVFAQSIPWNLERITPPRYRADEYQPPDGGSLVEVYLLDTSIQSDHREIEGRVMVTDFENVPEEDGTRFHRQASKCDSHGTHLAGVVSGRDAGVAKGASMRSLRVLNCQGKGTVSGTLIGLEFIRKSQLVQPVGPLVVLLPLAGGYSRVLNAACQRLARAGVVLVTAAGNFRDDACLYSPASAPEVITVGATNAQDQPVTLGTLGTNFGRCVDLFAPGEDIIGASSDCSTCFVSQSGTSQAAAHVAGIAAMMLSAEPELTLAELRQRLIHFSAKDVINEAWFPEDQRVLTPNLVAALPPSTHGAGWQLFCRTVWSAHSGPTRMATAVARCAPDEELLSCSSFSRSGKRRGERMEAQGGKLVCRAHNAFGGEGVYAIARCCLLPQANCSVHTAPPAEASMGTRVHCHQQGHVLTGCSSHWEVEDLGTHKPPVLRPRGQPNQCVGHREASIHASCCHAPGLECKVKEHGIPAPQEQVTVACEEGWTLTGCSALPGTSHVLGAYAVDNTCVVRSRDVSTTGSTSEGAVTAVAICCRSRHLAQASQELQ

Molecular target: V5-, His-tagged recombinant human PCSK9 protein (human) (UniProt Q8NBP7)
Experiment: ELISA on immobilized V5-, His-tagged PCSK9, HRP anti-Fab detection

binding: binds
B3: 3CX4B08 (Fab, V domains shown)
VH: QVQLVESGGGLVQPGGSLRLSCAASGFTFSNYTMNWVRQAPGKGLEWVSFISSSSSETYYADSVKGRFTISRDNSKNTLYLQMNSLRAEDTAVYYCARGYGDMVDLWGQGTLVTVSS
VL: DIELTQPPSVSVAPGQTARISCSGDSIPTYYVAWYQQKPGQAPVLVIYSDTDRPSGIPERFSGSNSGNTATLTISGTQAEDEADYYCQSFDNHGYHVFGGGTKLTVLG

binding: binds
B4: 3CX2A06 (Fab, V domains shown)
VH: QVQLVQSGAEVKKPGESLKISCKGSGYSFSNFWIAWVRQMPGKGLEWMGIIDPSDSWTRYSPSFQGQVTISADKSISTAYLQWSSLKASDTAMYYCARGDGQDFDNWGQGTLVTVSS
VL: DIQMTQSPSSLSASVGDRVTITCRASQNINSYLNWYQQKPGKAPKLLIYAASSLQSGVPSRFSGSGSGTDFTLTISSLQPEDFAVYYCLQNYDLPNTFGQGTKVEIKR

binding: binds
B5: 3CX3D02 (Fab, V domains shown)
VH: QVQLVQSGAEVKKPGESLKISCKGSGYSFTNSWIGWVRQMPGKGLEWMGIIYPSDSYTIYSPSFQGQVTISADKSISTAYLQWSSLKASDTAMYYCARGGGYYYALMDVWAQGTLVTVSS
VL: B4 VL with N28T, N30S, S31T, Y32W, V85T, N91D, Y92S, D93S, N96L

More lines, now with the values behind:

B1: 3BX5C01 (Fab, V domains shown)
VH: QVQLVQSGAEVKKPGESLKISCKGSGYSFTSYGISWVRQMPGKGLEWMGMIDPSDSFTTYSPSFQGQVTISADKSISTAYLQWSSLKASDTAMYYCARGYYFTYALQPMDHWGQGTLVTVSS
VL: DIELTQPPSVSVAPGQTARISCSGDNLRDYIVHWYQQKPGQAPVLVIYDDSNRPSGIPERFSGSNSGNTATLTISGTQAEDEADYYCGFDNGGDIDVFGGGTKLTVLG
binding: binds

B2: 1CX1G08 (Fab, V domains shown)
VH: QVQLVESGGGLVQPGGSLRLSCAASGFTFSDYWVSWVRQAPGKGLEWVSFISYDGSSTYYADSVKGRFTISRDNSKNTLYLQMNSLRAEDTAVYYCARTYFEGVDVWGQGTLVTVSS
VL: DIELTQPPSVSVAPGQTARISCSGDNIGTYYVHWYQQKPGQAPVLVIYDDSNRPSGIPERFSGSNSGNTATLTISGTQAEDEADYYCGTWDNTSFNLVFGGGTKLTVLG
binding: binds
